Our source for the binding values is article doi:10.1101/2025.06.19.660329.

No constants are given. Whether binding was seen depends on the method and setting. In cells and extracts the contact can be indirect. Some entries that bind do so weakly or less than the wild type.

The assay concerns the target T1, CD70 (human (endogenous in Raji)) (UniProt P32970).
T1 sequence: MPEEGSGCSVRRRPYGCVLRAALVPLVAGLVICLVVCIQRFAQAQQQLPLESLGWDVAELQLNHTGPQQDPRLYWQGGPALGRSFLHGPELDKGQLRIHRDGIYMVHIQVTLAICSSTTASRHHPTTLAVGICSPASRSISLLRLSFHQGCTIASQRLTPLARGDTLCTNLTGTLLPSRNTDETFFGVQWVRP
Kind of assay: proximity ligation.

B1: CD20 (protein, UniProt P11836 1-297)
chain: MTTPRNSVNGTFPAEPMKGPIAMQSGPKPLFRRMSSLVGPTQSFFMRESKTLGAVQIMNGLFHIALGGLLMIPAGIYAPICVTVWYPLWGGIMYIISGSLLAATEKNSRKCLVKGKMIMNSLSLFAAISGMILSIMDILNIKISHFLKMESLNFIRAHTPYINIYNCEPANPSEKNSPSTQYCYSIQSLFLGILSVMLIFAFFQELVIAGIVENEWKRTCSRPKSNIVLLSAEEKKEQTIEIKEEVVGLTETSSQPKNEEDIEIIPIQEEEEEETETNFPEPPQDQESSPIENDSSP
Regarding B1, the binding result is listed as “binds”.
